# Results deposited as PubChem BioAssay AID1259308 (NCATS, 2017).
# Assay: 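Genes whose loss raises luciferase production in HEK293 cells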 (primary screen)
# System: human HEK293 embryonic kidney cells stably expressing firefly luciferase (HEK-CMV-Luc2-Hygro)
# Reagents: single siRNA against human genes, 0.8 pmol siRNA per well
# Duration: 72 h
# Detection: 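Luciferase light (ONE-Glo) measured on one replicate plate set and viability (CellTiter-Glo) on the other, scaled to a negative control siRNA, with robust z-scores and luciferase per cell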
# Reading the numbers: total luciferase, z-score and total luciferase, % of control: higher = more reporter protein produced; luciferase per cell, z-score: higher = more reporter output per viable cell; viable cells, % of control: higher = more viable cells
# Rule for the call: 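Active when the median/MAD z-score for overall luciferase is greater than 3; a gene was taken forward for validation with new siRNAs if at least two of its three siRNAs passed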
# Calls: active = raised luciferase; inactive = no rise
# Here is a random part of about 59,000 reagents tested. Over the whole deposit, about 1,510 (2.6%) were called active. 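Calls use total luciferase alone and ignore viability, so some active siRNAs may act by altering cell number.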 A number with no mark means an inactive call. Reagents against one gene are numbered here.
gene,siRNA no.,"total luciferase, z-score","total luciferase, % of control","luciferase per cell, z-score","viable cells, % of control"
ILDR1,1,-0.364,74.6,0.278,77.5
ILDR1,2,-0.236,77.2,-0.288,93.1
ILDR1,3,-0.685,68.3,-0.365,84
IMPA1,1,-0.351,74.9,-0.616,98.5
IMPA1,2,-1.11,59.7,-1.53,99.8
IMPA1,3,-1.77,46.6,-1.85,84.8
NKAIN2,1,-0.468,72.6,-0.489,92.3
NKAIN2,2,-0.0536,80.8,0.256,84.4
NKAIN2,3,0.229,86.4,0.477,85.2
ARMCX1,1,-0.152,78.9,-0.486,100
ARMCX1,2,-0.0846,80.2,-0.521,103
ARMCX1,3,1.45,111,0.842,99.1
FAM230J,1,-0.727,67.4,-0.683,90.2
FAM230J,2,-0.882,64.3,-0.19,75.6
FAM230J,3,1.5,112,1.05,94.8
FAM230J,4,1.66,115,1.39,89.1
FAM230J,5,-0.556,70.8,1.56,52.5
FAM230J,6,0.469,91.2,0.67,85.5
KRTAP5-6,1,-1.04,61.2,-0.528,78.5
KRTAP5-6,2,-2.39,34.3,-0.971,49.5
KRTAP5-6,3,-0.0392,81.1,0.171,86.7
PIAS3,1,0.0557,83,-0.0471,93.9
PIAS3,2,1.33,108,0.683,101
PIAS3,3,0.615,94.1,0.12,102
SLC1A5,1,-1.53,51.4,-1.62,87.9
SLC1A5,2,-0.676,68.4,-0.0957,78.4
SLC1A5,3,0.677,95.4,0.854,85.1
LGALS16,1,-1.25,57,-1.41,92.4
LGALS16,2,-0.81,65.8,-1.62,113
LGALS16,3,-1.54,51.2,-2.32,106
DCLRE1A,1,-0.536,71.2,0.154,76.4
DCLRE1A,2,1.37,109,3.9,43.7
DCLRE1A,3,0.44,90.6,0.48,89.2
H4C2,1,-0.824,65.5,-1.23,101
H4C2,2,0.625,94.3,0.231,99.2
H4C2,3,-0.434,73.3,-0.935,105
EML2,1,1.63,114,0.906,101
EML2,2,0.368,89.2,1.01,76.3
EML2,3,-0.333,75.3,-0.959,108

A stretch taken from the entries so far, as a working copy:
gene,siRNA no.,"total luciferase, z-score","total luciferase, % of control","luciferase per cell, z-score","viable cells, % of control"
KRTAP5-6,2,-2.39,34.3,-0.971,49.5
KRTAP5-6,3,-0.0392,81.1,0.171,86.7
PIAS3,1,0.0557,83,-0.0471,93.9
PIAS3,2,1.33,108,0.683,101
PIAS3,3,0.615,94.1,0.12,102
SLC1A5,1,-1.53,51.4,-1.62,87.9
